Measurements from the supplement of paper PMC10849652.
This is one part of the list.

By UniProt entry, the sequences of proteins in these tests, tags left out. Where a name states a change or a piece, a line headed by the entry shows the natural chain unless it says otherwise.
UniProt Q6DD87: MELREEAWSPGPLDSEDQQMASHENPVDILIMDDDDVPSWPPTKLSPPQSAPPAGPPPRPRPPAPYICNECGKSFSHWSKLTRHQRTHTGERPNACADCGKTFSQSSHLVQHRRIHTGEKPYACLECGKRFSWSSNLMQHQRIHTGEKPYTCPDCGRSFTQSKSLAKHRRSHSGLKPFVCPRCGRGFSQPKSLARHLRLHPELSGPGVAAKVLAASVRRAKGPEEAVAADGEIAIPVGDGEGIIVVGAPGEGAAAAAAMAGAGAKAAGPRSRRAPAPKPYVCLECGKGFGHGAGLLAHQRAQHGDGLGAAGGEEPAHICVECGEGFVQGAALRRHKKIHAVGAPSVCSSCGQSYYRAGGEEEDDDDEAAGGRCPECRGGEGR
UniProt Q2TB10: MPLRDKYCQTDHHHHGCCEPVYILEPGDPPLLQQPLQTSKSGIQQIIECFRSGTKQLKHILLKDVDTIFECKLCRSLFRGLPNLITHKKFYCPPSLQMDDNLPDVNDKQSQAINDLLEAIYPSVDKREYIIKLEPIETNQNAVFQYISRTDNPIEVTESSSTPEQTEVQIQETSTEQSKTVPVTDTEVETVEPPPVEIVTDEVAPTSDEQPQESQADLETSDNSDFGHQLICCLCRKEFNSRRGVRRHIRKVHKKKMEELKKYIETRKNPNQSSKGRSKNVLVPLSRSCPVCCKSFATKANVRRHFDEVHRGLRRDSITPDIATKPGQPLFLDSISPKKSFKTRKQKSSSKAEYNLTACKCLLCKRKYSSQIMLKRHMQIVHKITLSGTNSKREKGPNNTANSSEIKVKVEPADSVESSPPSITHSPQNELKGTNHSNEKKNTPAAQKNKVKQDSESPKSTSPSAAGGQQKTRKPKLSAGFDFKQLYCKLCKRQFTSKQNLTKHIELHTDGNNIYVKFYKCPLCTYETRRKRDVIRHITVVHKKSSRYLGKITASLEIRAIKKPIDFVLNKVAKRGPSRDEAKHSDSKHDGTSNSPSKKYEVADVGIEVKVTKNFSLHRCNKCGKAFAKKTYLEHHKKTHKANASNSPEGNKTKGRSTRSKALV
UniProt Q96NB3: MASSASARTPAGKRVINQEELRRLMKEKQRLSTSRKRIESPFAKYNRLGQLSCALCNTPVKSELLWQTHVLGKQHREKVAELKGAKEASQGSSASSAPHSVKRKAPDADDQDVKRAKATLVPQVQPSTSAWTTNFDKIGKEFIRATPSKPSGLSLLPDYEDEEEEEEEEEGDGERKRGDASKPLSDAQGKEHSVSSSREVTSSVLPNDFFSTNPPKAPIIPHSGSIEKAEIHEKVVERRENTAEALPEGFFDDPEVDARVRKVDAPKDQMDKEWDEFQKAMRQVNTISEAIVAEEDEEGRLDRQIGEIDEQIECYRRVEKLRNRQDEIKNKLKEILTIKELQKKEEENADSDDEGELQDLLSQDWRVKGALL
UniProt Q6ZMS4: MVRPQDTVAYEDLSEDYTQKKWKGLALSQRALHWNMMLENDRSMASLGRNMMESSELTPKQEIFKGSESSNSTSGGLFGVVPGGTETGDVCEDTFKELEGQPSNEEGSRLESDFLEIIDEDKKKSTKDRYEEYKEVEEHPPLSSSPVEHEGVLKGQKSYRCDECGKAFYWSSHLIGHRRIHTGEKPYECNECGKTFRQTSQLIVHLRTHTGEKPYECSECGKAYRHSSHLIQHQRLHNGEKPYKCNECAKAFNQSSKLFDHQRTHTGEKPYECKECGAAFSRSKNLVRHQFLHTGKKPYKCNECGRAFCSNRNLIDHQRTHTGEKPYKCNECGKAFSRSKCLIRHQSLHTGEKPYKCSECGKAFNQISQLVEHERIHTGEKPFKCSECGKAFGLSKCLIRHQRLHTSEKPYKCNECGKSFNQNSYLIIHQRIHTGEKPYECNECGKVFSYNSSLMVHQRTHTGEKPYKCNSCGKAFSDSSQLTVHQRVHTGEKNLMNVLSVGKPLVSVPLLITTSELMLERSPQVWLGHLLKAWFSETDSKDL
UniProt O43257, whole entry, looked up: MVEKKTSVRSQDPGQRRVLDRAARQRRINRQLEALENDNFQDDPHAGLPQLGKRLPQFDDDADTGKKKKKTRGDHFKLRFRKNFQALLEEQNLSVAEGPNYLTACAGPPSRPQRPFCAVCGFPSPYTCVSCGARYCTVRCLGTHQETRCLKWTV
UniProt Q9UHR6: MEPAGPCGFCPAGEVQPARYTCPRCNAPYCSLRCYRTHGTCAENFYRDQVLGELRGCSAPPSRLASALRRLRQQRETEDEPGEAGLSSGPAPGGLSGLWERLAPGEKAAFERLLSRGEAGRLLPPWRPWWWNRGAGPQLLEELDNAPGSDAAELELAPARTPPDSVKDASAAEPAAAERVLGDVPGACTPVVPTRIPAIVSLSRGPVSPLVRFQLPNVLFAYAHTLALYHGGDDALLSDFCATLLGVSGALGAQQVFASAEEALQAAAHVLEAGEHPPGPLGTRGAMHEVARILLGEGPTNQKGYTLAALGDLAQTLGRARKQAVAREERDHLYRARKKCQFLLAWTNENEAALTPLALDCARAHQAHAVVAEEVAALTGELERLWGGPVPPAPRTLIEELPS
UniProt Q15649: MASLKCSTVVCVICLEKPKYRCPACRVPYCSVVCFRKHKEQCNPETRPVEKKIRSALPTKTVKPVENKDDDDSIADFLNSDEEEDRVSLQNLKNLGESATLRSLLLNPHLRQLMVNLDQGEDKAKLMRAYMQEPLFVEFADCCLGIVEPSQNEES
UniProt Q9P1U0, whole entry, looked up: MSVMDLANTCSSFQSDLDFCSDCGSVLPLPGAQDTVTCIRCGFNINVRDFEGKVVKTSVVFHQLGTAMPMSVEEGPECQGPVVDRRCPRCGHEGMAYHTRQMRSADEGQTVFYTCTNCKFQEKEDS
UniProt O60232: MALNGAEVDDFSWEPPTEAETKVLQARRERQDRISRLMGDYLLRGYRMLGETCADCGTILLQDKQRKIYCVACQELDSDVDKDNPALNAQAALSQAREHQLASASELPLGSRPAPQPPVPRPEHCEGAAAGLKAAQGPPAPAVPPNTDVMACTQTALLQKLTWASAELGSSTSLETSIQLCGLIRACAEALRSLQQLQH
UniProt Q8ND25: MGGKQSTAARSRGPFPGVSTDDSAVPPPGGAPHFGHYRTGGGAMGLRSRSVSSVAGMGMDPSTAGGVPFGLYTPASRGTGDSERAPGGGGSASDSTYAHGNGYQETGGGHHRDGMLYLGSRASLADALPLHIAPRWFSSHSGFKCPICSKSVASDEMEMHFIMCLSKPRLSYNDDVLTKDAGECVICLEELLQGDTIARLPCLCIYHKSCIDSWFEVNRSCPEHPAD
UniProt Q8NHG8: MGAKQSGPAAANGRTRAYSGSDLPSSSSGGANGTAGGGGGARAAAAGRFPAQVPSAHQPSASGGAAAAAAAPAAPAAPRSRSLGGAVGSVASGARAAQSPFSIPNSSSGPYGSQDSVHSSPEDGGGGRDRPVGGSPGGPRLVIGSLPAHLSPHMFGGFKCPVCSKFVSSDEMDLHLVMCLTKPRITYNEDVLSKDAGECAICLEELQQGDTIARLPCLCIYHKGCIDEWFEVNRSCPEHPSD
UniProt O75312: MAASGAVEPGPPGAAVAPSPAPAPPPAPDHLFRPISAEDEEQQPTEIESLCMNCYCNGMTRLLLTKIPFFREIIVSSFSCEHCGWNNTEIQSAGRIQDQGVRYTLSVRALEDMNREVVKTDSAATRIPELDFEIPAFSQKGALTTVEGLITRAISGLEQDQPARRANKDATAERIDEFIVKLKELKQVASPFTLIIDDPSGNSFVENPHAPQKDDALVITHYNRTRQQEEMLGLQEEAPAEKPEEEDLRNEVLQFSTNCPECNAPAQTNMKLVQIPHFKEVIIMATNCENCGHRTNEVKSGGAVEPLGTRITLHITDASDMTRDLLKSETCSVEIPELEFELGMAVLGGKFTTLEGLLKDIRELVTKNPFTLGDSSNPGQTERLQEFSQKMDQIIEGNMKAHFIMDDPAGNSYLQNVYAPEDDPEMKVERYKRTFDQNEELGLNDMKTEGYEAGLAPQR
UniProt O95218: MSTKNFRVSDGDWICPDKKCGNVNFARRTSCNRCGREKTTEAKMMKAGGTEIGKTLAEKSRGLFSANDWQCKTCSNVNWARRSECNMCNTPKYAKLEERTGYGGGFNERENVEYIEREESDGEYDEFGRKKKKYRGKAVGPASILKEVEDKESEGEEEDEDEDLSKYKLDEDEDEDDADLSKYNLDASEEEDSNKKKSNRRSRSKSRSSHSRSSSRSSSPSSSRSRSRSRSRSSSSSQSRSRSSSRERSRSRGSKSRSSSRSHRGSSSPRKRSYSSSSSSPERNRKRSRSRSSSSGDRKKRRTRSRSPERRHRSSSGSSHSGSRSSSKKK
UniProt O43264: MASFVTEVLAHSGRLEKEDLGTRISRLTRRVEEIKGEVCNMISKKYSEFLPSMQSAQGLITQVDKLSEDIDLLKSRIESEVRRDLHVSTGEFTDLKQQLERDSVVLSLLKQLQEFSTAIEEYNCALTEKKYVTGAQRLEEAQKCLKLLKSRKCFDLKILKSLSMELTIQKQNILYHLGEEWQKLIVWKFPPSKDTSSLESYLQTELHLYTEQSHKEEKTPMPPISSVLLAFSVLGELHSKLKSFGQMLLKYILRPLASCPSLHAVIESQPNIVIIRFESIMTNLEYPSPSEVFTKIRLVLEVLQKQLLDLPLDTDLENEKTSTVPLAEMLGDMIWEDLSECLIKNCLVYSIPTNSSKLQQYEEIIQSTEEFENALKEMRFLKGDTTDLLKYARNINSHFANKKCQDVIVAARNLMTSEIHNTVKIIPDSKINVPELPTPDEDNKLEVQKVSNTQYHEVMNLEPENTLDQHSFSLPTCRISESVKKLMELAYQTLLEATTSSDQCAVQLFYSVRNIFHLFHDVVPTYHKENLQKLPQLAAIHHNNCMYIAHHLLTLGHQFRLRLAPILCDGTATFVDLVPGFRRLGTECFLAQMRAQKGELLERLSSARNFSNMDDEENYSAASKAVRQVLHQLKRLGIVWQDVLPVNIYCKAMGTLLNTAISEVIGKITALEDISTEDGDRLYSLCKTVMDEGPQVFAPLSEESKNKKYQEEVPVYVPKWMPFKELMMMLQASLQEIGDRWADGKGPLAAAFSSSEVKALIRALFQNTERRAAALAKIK
UniProt Q9NWK9: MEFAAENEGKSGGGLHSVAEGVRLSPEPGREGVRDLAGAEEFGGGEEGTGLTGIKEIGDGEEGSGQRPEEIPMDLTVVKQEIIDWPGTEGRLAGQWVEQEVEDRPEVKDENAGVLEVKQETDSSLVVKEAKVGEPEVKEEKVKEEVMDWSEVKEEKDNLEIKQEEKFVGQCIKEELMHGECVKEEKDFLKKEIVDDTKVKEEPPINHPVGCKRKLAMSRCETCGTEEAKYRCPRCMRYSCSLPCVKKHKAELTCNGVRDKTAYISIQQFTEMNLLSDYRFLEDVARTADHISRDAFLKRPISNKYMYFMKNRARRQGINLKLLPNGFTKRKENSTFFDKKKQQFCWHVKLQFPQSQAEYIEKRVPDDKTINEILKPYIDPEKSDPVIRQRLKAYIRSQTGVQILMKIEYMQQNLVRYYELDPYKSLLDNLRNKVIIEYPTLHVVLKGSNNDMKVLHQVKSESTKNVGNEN
UniProt Q16670: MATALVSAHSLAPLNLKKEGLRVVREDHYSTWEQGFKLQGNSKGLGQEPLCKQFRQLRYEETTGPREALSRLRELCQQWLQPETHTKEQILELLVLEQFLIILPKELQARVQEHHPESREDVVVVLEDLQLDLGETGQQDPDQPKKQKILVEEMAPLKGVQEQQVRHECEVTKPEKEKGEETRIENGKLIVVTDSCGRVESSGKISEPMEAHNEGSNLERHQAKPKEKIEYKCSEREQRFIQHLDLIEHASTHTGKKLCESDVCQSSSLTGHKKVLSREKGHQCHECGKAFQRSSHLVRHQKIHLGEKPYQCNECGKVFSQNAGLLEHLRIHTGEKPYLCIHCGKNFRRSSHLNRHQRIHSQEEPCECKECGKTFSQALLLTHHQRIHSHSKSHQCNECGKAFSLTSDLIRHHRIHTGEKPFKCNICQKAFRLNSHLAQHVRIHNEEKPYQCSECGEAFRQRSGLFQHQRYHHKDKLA
UniProt Q19AV6: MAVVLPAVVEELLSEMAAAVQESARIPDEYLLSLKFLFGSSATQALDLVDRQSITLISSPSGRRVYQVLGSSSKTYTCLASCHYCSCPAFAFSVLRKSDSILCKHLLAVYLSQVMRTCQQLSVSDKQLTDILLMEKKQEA

Tests used:
Test in all cases: log2 fold change, soluble protein after heating vs DMSO (PISA); higher = thermal stabilisation; K562 cells, 10 uM, 30 min; active = over 0.2 and 3.5 SD of the protein, either way, in both replicates (recomputed)
[1] = target: ZNF787 (UniProt Q6DD87)
Method in brief: (§1)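 K562 cells at 2×10^6 cells/mL were treated with 10 μM compound for 30 min. Aliquots were heated for 3 min across 48°C-58°C, pooled, and extracted in PBS with 0.5% NP-40 at 4°C; soluble protein was the supernatant after 21,000xg for 90 min. Soluble protein was quantified by TMTpro 16plex LC-MS/MS with channel sums equalised, and reported as log2 fold change in thermal stability against DMSO controls, with values from duplicates.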

[2] = target: ZNF800 (UniProt Q2TB10)
Method in brief: as §1

[3] = target: ZNF830 (UniProt Q96NB3)
Method in brief: as §1

[4] = target: ZNF852 (UniProt Q6ZMS4)
Method in brief: as §1

[5] = target: ZNHIT1 (UniProt O43257)
Method in brief: as §1

[6] = target: ZNHIT2 (UniProt Q9UHR6)
Method in brief: as §1

[7] = target: ZNHIT3 (UniProt Q15649)
Method in brief: as §1

[8] = target: ZNRD1 (UniProt Q9P1U0)
Method in brief: as §1

[9] = target: ZNRD2 (UniProt G3V1B8)
Method in brief: as §1

[10] = target: ZNRD2 (UniProt O60232)
Method in brief: as §1

[11] = target: ZNRF1 isoform 2 (UniProt Q8ND25)
Method in brief: as §1

[12] = target: ZNRF2 (UniProt Q8NHG8)
Method in brief: as §1

[13] = target: ZPR1 (UniProt O75312)
Method in brief: as §1

[14] = target: ZRANB2 (UniProt O95218)
Method in brief: as §1

[15] = target: ZW10 (UniProt O43264)
Method in brief: as §1

[16] = target: ZNHIT6 (UniProt Q9NWK9)
Method in brief: as §1

[17] = target: ZSCAN26 (UniProt Q16670)
Method in brief: as §1

[18] = target: ZSWIM7 (UniProt Q19AV6)
Method in brief: as §1

Measured: log2 fold change

FC(F)(F)c1ccc(/C=C/c2nc(COc3ccc(CCCCn4ccnn4)cc3)co2)cc1 [mubritinib]
inactive: [1] -0.079 | [2] -0.131 | [3] 0.027 | [4] -0.334 | [5] -0.167 | [6] -0.233 | [7] 0.014 | [8] -0.053 | [9] 0.219 | [10] 0.033 | [11] 0.036 | [12] 0.056 | [13] 0.033 | [14] -0.02 | [15] 0.028

Cc1cccc(-c2[nH]c(C(C)(C)C)nc2-c2ccc3nccnc3c2)n1
inactive: [1] -0.076 | [2] -0.168 | [3] 0.039 | [4] -0.105 | [7] -0.031 | [16] 0.056 | [8] 0.053 | [10] 0.02 | [11] 0.146 | [13] 0.023 | [14] -0.05 | [15] 0.006

O=C(Nc1nc2ccccc2n1CCN1CCOCC1)c1cccc([N+](=O)[O-])c1 [IRAK-1-4 Inhibitor I]
inactive: [1] -0.024 | [2] -0.221 | [3] 0.067 | [4] -0.053 | [7] -0.009 | [16] 0 | [8] 0.132 | [10] 0.017 | [11] 0.012 | [13] 0.013 | [14] -0.008 | [15] -0.076

CN1CCN(c2nc(C3=C(c4c[nH]c5ccccc45)C(=O)NC3=O)c3ccccc3n2)CC1 [sotrastaurin]
inactive: [1] 0.094 | [2] 0.079 | [3] 0.004 | [4] -0.029 | [5] 0.028 | [7] 0.06 | [16] 0.029 | [8] 0.015 | [9] -0.187 | [10] 0.064 | [12] 0.092 | [13] -0.015 | [14] -0.027 | [17] 0.1 | [18] -0.238 | [15] -0.089

O=C(O)c1ccc2c(c1)nc(Nc1cccc(Cl)c1)c1ccncc12 [silmitasertib]
inactive: [1] 0.067 | [2] 0.145 | [3] -0.004 | [4] 0.208 | [5] -0.021 | [6] 0.199 | [7] -0.016 | [8] -0.015 | [9] -0.207 | [10] 0.003 | [11] -0.009 | [12] -0.041 | [13] 0.01 | [14] 0.018 | [15] 0.083

C[C@@H](Oc1cc(-c2cnn(C3CCNCC3)c2)cnc1N)c1c(Cl)ccc(F)c1Cl [crizotinib]
inactive: [1] -0.026 | [2] -0.023 | [3] 0.019 | [4] -0.013 | [7] 0.085 | [16] 0.02 | [8] 0.18 | [10] 0.149 | [11] -0.009 | [13] 0.082 | [14] 0.014 | [15] -0.137

CCCc1cc(C)[nH]c(=O)c1CNC(=O)c1cc(-c2ccnc(N3CCN(C)CC3)c2)cc2c1cnn2C(C)C
inactive: [1] 0.123 | [2] 0.37 | [3] -0.038 | [4] -0.132 | [5] 0.059 | [6] 0.257 | [7] -0.059 | [8] 0.028 | [9] 0.255 | [10] -0.073 | [11] 0.036 | [12] -0.07 | [13] 0.016 | [14] 0.028 | [15] 0.072

3 structures out of the list, sorted by molecular weight, descending:
CCCc1cc(C)[nH]c(=O)c1CNC(=O)c1cc(-c2ccnc(N3CCN(C)CC3)c2)cc2c1cnn2C(C)C
inactive: [1] 0.123 | [2] 0.37 | [3] -0.038 | [4] -0.132 | [5] 0.059 | [6] 0.257 | [7] -0.059 | [8] 0.028 | [9] 0.255 | [10] -0.073 | [11] 0.036 | [12] -0.07 | [13] 0.016 | [14] 0.028 | [15] 0.072

O=C(Nc1nc2ccccc2n1CCN1CCOCC1)c1cccc([N+](=O)[O-])c1 [IRAK-1-4 Inhibitor I]
inactive: [1] -0.024 | [2] -0.221 | [3] 0.067 | [4] -0.053 | [7] -0.009 | [16] 0 | [8] 0.132 | [10] 0.017 | [11] 0.012 | [13] 0.013 | [14] -0.008 | [15] -0.076

O=C(O)c1ccc2c(c1)nc(Nc1cccc(Cl)c1)c1ccncc12 [silmitasertib]
inactive: [1] 0.067 | [2] 0.145 | [3] -0.004 | [4] 0.208 | [5] -0.021 | [6] 0.199 | [7] -0.016 | [8] -0.015 | [9] -0.207 | [10] 0.003 | [11] -0.009 | [12] -0.041 | [13] 0.01 | [14] 0.018 | [15] 0.083

Additional structures:

COC(=O)N[C@@H](C)CNc1nccc(-c2cn(C(C)C)nc2-c2cc(Cl)cc(NS(C)(=O)=O)c2F)n1 [encorafenib]
inactive: [1] 0.108 | [2] 0.242 | [3] -0.013 | [4] -0.11 | [5] -0.1 | [7] -0.003 | [8] -0.098 | [10] -0.018 | [11] 0.045 | [12] 0.028 | [13] 0.01 | [14] -0.066 | [17] 0.079 | [18] 0.006 | [15] 0.094

CC(C)N(C[C@H]1O[C@@H](n2cnc3c(N)ncnc32)[C@H](O)[C@@H]1O)[C@H]1C[C@@H](CCc2nc3cc(C(C)(C)C)ccc3[nH]2)C1 [pinometostat]
inactive: [1] 0.241 | [2] 0.534 | [3] -0.052 | [4] 0.227 | [7] -0.066 | [16] 0.098 | [8] -0.187 | [10] -0.014 | [11] -0.047 | [13] -0.053 | [14] 0.012 | [15] 0.152

Nc1ccccc1NC(=O)c1ccc(CNC(=O)OCc2cccnc2)cc1 [entinostat]
inactive: [1] -0.072 | [2] 0.09 | [3] -0.029 | [4] -0.169 | [5] 0.098 | [7] -0.053 | [16] 0.054 | [8] -0.002 | [9] 0.027 | [10] 0.029 | [12] -0.031 | [13] 0.019 | [14] -0.024 | [17] -0.063 | [18] -0.072 | [15] 0.063
